Assay results taken from US20220087981A1.
No constants are given. Whether binding was seen depends on the method and setting. Some results given as binding are weak or reduced against the parent protein; the word gives no strength. Sequences can lack the tags named with a protein.

Tests used:
[1] = molecular target: T1, mouse CD47 on QPCTL knockout or SEN177-treated murine cells (B16F10, Ba/F3-Her2) (mouse) (UniProt Q61735); assay: flow cytometry on QPCTL knockout B16F10 and Ba/F3-Her2 cells (likewise reduced after SEN177); weaker than on WT cells
T1 sequence (lacking the QPCTL-dependent N-terminal pyroglutamate, looked up): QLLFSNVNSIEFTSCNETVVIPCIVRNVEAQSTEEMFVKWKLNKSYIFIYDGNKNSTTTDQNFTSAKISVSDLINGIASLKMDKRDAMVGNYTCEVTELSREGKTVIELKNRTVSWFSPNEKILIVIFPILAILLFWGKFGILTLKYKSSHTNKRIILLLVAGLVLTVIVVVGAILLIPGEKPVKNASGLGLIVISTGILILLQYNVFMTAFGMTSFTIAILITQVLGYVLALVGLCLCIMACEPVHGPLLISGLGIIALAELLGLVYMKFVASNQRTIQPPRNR

[2] = molecular target: T2, mouse CD47 on wild-type or QPCTL-reconstituted murine cells (B16F10, Ba/F3-Her2) (mouse) (UniProt Q61735); assay: flow cytometry on WT and QPCTL-reconstituted B16F10 and Ba/F3-Her2 cells
T2 sequence (QPCTL-dependent pyroglutamate at the N-terminus, looked up): T1 sequence (lacking the QPCTL-dependent N-terminal pyroglutamate, looked up)

[3] = molecular target: T1, mouse CD47 on QPCTL knockout or SEN177-treated murine cells (B16F10, Ba/F3-Her2) (mouse); assay: flow cytometric sorting of B16F10 cells transfected with sgRNA against murine QPCTL; low binding

Measured: binding

B1: recombinant mouse SIRP alpha/CD172a Fc Chimera Protein (R&D Systems) (Fc fusion, UniProt P97797 32-373, looked up, not shown: a dimerising Fc or GST)
chain: KELKVTQPEKSVSVAAGDSTVLNCTLTSLLPVGPIRWYRGVGPSRLLIYSFAGEYVPRIRNVSDTTKRNNMDFSIRISNVTPADAGIYYCVKFQKGSSEPDTEIQSGGGTEVYVLAKPSPPEVSGPADRGIPDQKVNFTCKSHGFSPRNITLKWFKDGQELHPLETTVNPSGKNVSYNISSTVRVVLNSMDVNSKVICEVAHITLDRSPLRGIANLSNFIRVSPTVKVTQQSPTSMNQVNLTCRAERFYPEDLQLIWLENGNVSRNDTPKNLTKNTDGTYNYTSLFLVNSSAHREDVVFTCQVKHDQQPAITRNHTVLGFAHSSDQGSMQTFPDNNATHNWN
binds: all assays above
